From PubChem BioAssay AID2685 (National Center for Advancing Translational Sciences (NCATS), 2010) come the findings set out here.

Some of the results follow. Further columns of the screen follow, without active or inactive calls. The list favours compounds with an active or inconclusive main result. The note in brackets gives the kind of curve behind each potency; many fits are weak.

The AC50 is the concentration at which the activity in the assay is half-maximal. Low readings indicate activity at low concentration, high ones activity only at high concentration.

A short description of the assay: qHTS Assay for Lipid Storage Modulators in Drosophila S3 Cells.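 As to cell number change: cells counted by Cell Tracker Red CMTPX staining in the red channel.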 The conditions noted are these: BODIPY lipid droplet fluorescence, 18-24 h; for cell number change: measured here: cell count max response, cells fed with added oleic acid. The procedure, abridged:
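Laser-scanning cytometry quantifies lipid droplet accumulation (500–530 nm total intensity; droplet/cell object ratio) in oleic acid-fed (400 uM added) Drosophila S3 cells treated with a concentration series. 20 uM Triacsin C defined 100% inhibition.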
(In qHTS, concentration-response curves come from the screen itself.)

[1] abbreviates: measured here: lipid fluorescence (Fed channel) AC50, cells fed with added oleic acid.
Where [2] appears, read: measured here: cell number channel AC50, cells fed with added oleic acid.

Regarding `O=C(CN1C(=O)c2ccccc2C1=O)NCc1ccc(C(=O)O)cc1`, the cell number change was 12.6%.

`COCCn1c(SCC(=O)N2CCCC2)nnc1-c1ccco1`: the cell number change was 9.21%. Take `Cc1cccc(CCNC(=O)C2CCCN(S(=O)(=O)c3cnc[nH]3)C2)c1` (centres undefined): the cell number change worked out at 20.3%. Under setting [1], the AC50 was 3.66 µM [falling, single point]. On to `Cc1cccc(NS(=O)(=O)c2ccc(C(=O)NCC3CCCO3)cc2)c1C` (centres undefined), for which the cell number change is -4.53%. The concentration at half-maximal activity (AC50) under setting [1] was 2.91 µM [rising, partial curve, poor fit]. In the case of `COc1ccc(N2Cc3cccc(C(=O)N4CCN(C(=O)c5ccco5)CC4)c3C2=O)cc1`, the cell number change is -1.01%. The AC50 under setting [1] is 0.206 µM [falling, partial curve, poor fit]. With `Cc1cc2cc(CN(CC3CCCO3)C(=O)c3cnccn3)c(=O)[nH]c2cc1C` (centres undefined), under setting [1], the AC50 was 2.31 µM [rising, single point]. Consider `CCCCn1c(N)c(N(CCC(C)C)C(=O)c2ccc(-c3ccc([N+](=O)[O-])cc3)o2)c(=O)[nH]c1=O`, for which the cell number change was -31.7%. Under setting [2], the AC50 was 10.3 µM [falling, partial curve, poor fit]. Also, under setting [1], the AC50 is 10.3 µM [falling, partial curve, poor fit]. With `CCOc1c(Cl)cc(C(=O)NCCN2CCCCC2)cc1Cl`, the cell number change was 1.48%. For the same compound, under setting [1], the AC50 was 6.51 µM [rising, partial curve, poor fit]. `Cc1nnc(SCC(=O)N(C)C2CCCCC2)s1`: the cell number change is -15.2%. Besides, the AC50 under setting [1] was 0.103 µM [falling, full curve, poor fit]. With `CC(C)Cn1nc(NC(=O)C(C)(C)C)c2cc3ccccc3nc21`, the cell number change is -3.26%. Further, the AC50 under setting [1] is 14.6 µM [rising, single point]. As for `Cc1nn(C)c(C(=O)Nc2c(C)nn(Cc3c(F)c(F)c(F)c(F)c3F)c2C)c1Br`, the cell number change is -20.1%. Under setting [1], the AC50 was 6.51 µM [rising, single point]. As to `COc1ccc(N2C(=O)c3cccc4c(N(C)CCO)ccc(c34)C2=O)cc1`, the cell number change was -8.78%. Further, the AC50 under setting [1] was 29.1 µM [falling, single point].

As to `COc1ccccc1C(=O)Nc1ccc(N2CCN(Cc3ccccc3)CC2)cc1`, the cell number change turned out to be 17.5%. Moreover, under setting [1], the AC50 was 3.66 µM [rising, single point]. For `CCCCCn1c(SCCCC)nc2c1c(=O)[nH]c(=O)n2C`, the cell number change came out at 5.03%.

In the case of `O=c1c2ccccc2ncn1Cc1nc2ccccc2s1`, the cell number change is -14%. Moreover, the AC50 under setting [2] is 0.103 µM [falling, full curve, poor fit]. For the same compound, under setting [1], the AC50 was 6.51 µM [falling, single point]. Consider `CCN(c1cccc(C)c1)S(=O)(=O)c1cc2c3c(c1)CCC(=O)N3CCC2`, for which the cell number change was determined as 40.4%. Also, the AC50 under setting [2] was 1.84 µM [rising, full curve]. For `Cc1ccc(-n2nc3c(c2NC(=O)c2ccc4c(c2)OCO4)CS(=O)C3)cc1` (centres undefined), the cell number change was 28.6%. The AC50 under setting [1] is 0.00461 µM [falling, full curve, poor fit].

As to `CCCCn1c(N)c(N(CCOC)C(=O)c2ccc(C)o2)c(=O)[nH]c1=O`, the cell number change was -0.462%. For the same compound, the AC50 under setting [1] was 16.4 µM [falling, partial curve, poor fit]. For `C=CCNC(=S)Nc1sc2c(c1C(=O)OCC)CCN(C(=O)OCC)C2`, the cell number change came to 1.03%. The AC50 under setting [1] is 2.31 µM [rising, partial curve]. For `Cc1ccc(CNC(=O)COC(=O)c2ccc(S(=O)(=O)N3CCCCCC3)cc2)cc1`, the cell number change is -99.7%. For the same compound, the AC50 under setting [2] is 20.6 µM [falling, partial curve]. As for `Oc1ccc(/C=N/NC(=S)NCCN2CCOCC2)c(O)c1`, the cell number change was -20.5%. For the same compound, the AC50 under setting [2] is 6.51 µM [falling, single point]. Under setting [1], the AC50 was 3.66 µM [falling, full curve]. Take `COC(=O)c1sc(NC(=O)Cc2cccs2)nc1C`: the cell number change is 97.5%. Besides, under setting [2], the AC50 is 0.0731 µM [rising, full curve, poor fit]. Regarding `COc1ccc(Cl)cc1CSc1n[nH]c(C)n1`, the cell number change was -3.61%. Besides, the half-maximal activity concentration (AC50) under setting [1] was 29.1 µM [rising, single point]. As to `COc1cccc(NC(=O)C(C)N2C(=O)c3ccccc3S2(=O)=O)c1` (centres undefined), the cell number change was 15.2%. Moreover, the AC50 under setting [1] is 0.326 µM [falling, partial curve, poor fit].

In the case of `CN(Cc1nccs1)C(=O)c1ccc(OC2CCN(Cc3ccccn3)CC2)cc1`, the cell number change is -14.4%. In addition, the AC50 under setting [1] is 29.1 µM [rising, single point]. `CN(C)C(=O)c1ccc(NC(=O)COc2cccc3c2OC(C)(C)C3)cc1`: the cell number change was determined as 15.3%. On to `Cc1cccc(NS(=O)(=O)c2ccc3c(c2)NC(=O)CC(=O)N3)c1`, for which the cell number change is -28.3%. Besides, the AC50 under setting [2] was 0.184 µM [rising, full curve, poor fit].

For `O=C1CS/C(=N/N=C/c2cccs2)N1`, the AC50 under setting [1] was 29.1 µM [rising, single point]. For the compound `C1CCc2c(nnc3c2-c2nonc2CC3)C1`, the cell number change was -45.1%. Further, the AC50 under setting [2] is 29.1 µM [falling, single point]. The AC50 under setting [1] is 18.4 µM [falling, single point]. For `Cc1nc2nc(-c3ccc(F)cc3)cn2nc1C`, the cell number change amounted to 13.9%. For `COc1ccc(NC(=O)CN2CCN(Cc3ccc4c(c3)OCO4)CC2)cc1OC`, the cell number change was found to be 34.7%. Moreover, the AC50 under setting [2] is 6.51 µM [rising, partial curve, poor fit].

Consider `O=C(CSc1nc2ccccc2n1S(=O)(=O)c1ccccc1)N1CCCC1`, for which the cell number change came out at 16.8%. The AC50 under setting [1] was 0.58 µM [rising, full curve, poor fit]. For the compound `CCN(C(=O)c1cc2c(s1)-c1ccccc1OC2)c1cc(OC)ccc1OC`, the cell number change came to 7.78%. For the same compound, the AC50 under setting [1] is 0.092 µM [rising, full curve, poor fit]. On to `CC(=O)Nc1c(O)nc(SCC(=O)N2CCN(c3ccc(F)cc3)CC2)[nH]c1=O`, for which the cell number change turned out to be 0.199%. The AC50 under setting [2] is 0.103 µM [falling, full curve, poor fit]. Besides, under setting [1], the AC50 is 0.651 µM [falling, full curve]. As for `COc1ccccc1OCC(=O)N1CCCC(Nc2cccc(F)c2)C1` (centres undefined), the cell number change was -12.9%. Under setting [1], the AC50 is 0.58 µM [rising, single point]. As for `CC1CCC(=NNc2ccc(C(F)(F)F)cc2[N+](=O)[O-])CC1` (centres undefined), the cell number change is 1.1%. Besides, under setting [1], the AC50 is 13 µM [falling, partial curve]. Take `CN(C(=O)COC(=O)c1ccc([N+](=O)[O-])cc1N)c1ccccc1`: the cell number change was -11.5%. Also, the AC50 under setting [1] is 29.1 µM [falling, single point]. Turning to `CCCCCc1nc2ccccc2c(=O)n1N`, the cell number change is -69.3%. Moreover, the AC50 under setting [2] is 8.2 µM [falling, partial curve].
